Results taken from patent publication US6399349B1, “Human aminopeptidase P gene” (priority 1997, dated 2002).
At least one structure is not confirmed: it was looked up by name or label, or the drawing left a doubt. Where no end group is shown, it is not given here.

Legend:
[1] = system: AmP and ACE; details: reduction of arterial blood pressure by 25 mm Hg; cited from earlier work
[2] = system: endothelial cells; details: cited from earlier work
[3] = system: AmP and ACE; experiment: Mean systemic arterial blood pressure effects of BK injected i.v. or i.a. (log dose-response curves)
[4] = target: AmP; details: cited from earlier work

Sequence: RPPGFSPFR [BK, Arg-Pro-Pro-Gly-Phe-Ser-Pro-Phe-Arg]
- i.v. dose of BK relative to i.a. dose required for equivalent blood pressure reduction [1]: ≥ 40 times
- concentration that causes endothelial cells to mobilize arachidonate [2]: ≥ 10 pM
- reduction of systemic arterial blood pressure ([3]; 2.5 ng i.v. BK (about 2 pmol), AmP and ACE inhibited, one experiment): 20 mm Hg
- potentiation of effects of i.v. BK when both AmP and ACE are inhibited ([3]; RAC-X-65 plus APPBz 2 μmol/kg): up to 800 fold
- Ki [4]: 1100 nM
